Test results reported in patent US20040266791A1 (priority 2003, published 2004).
Some entries share one result that the patent states for a list of compounds.

Settings: water at about 20° C.

Risperidone (L)hemimalate
water solubility: at least 10 mg/ml
